{"sequences": {"note": "Amino acid sequences for entries named in this document (tags omitted).", "UniProt P01106": "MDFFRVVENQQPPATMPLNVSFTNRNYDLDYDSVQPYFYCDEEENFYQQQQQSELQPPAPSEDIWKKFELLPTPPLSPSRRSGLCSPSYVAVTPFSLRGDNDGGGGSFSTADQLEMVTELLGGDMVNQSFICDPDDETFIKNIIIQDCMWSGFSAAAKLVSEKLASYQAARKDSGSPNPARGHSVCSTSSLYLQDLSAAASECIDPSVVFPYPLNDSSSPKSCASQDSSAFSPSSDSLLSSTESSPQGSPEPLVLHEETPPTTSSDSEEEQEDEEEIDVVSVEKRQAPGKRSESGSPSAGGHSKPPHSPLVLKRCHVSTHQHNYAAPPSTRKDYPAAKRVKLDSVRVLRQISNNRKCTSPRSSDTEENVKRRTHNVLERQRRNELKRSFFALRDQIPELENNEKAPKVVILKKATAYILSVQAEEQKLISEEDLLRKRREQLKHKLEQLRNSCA", "UniProt Q969H0": "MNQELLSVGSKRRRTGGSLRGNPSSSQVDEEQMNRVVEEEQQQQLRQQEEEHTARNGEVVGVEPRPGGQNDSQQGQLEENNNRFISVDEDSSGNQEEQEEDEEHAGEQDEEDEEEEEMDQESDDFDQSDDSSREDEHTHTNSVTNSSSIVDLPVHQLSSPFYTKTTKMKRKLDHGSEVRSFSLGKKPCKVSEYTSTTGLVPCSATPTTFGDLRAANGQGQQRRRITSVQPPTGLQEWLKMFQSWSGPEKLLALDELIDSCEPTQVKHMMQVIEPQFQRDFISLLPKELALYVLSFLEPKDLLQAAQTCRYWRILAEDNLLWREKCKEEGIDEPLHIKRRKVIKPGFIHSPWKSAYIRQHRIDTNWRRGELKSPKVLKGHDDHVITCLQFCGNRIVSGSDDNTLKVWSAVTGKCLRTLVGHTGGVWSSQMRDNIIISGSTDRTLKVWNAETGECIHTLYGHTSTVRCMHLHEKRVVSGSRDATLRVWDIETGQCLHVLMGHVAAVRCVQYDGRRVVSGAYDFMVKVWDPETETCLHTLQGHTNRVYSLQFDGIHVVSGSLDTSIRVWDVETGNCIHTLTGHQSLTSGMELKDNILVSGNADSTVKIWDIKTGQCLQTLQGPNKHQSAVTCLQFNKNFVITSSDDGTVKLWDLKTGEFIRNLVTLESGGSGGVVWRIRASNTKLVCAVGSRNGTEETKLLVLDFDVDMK"}, "source": "paper PMC7235009", "biological_target": "c-Myc (human (endogenous in CAL27)) (UniProt P01106)", "assay": "co-IP; CAL27 cells treated with Tan IIA (Fig. 4f); sgCtrl and sgAkt stable CAL27 cells treated with Tan IIA for 24 h (Fig. 5e); WCE subjected to co-IP; which protein was precipitated is not told", "note": "Results are given in words; binding and its absence hold for the method and conditions named. In cells and extracts the contact can be indirect. Some entries that bind do so weakly or less than the wild type.", "data": [{"substance": "FBW7 (from UniProt Q969H0 1-707)", "values": [{"measurement": "binding", "result": "binds"}]}]}
